In PMC5752836:

Molecular target: T1, proline-rich transmembrane protein 2 (PRRT2) (mouse (endogenous in mouse brain)) (UniProt E9PUL5)
T1 sequence: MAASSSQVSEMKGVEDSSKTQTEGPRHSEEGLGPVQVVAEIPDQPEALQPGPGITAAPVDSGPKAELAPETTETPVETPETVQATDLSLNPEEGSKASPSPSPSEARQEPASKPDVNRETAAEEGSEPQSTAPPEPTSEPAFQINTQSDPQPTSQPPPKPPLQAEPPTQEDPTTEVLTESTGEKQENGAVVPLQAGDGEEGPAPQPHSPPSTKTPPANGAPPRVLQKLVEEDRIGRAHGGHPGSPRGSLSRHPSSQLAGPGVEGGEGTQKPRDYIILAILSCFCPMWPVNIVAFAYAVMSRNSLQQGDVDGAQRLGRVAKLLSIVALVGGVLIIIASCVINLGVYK
Test: co-IP; mouse brain lysates in ELB buffer (100 mM Tris, 10 mM EDTA, 300 mM NaCl, 0.2% NP-40, pH 7.5), anti-PRRT2 antibodies overnight at 4 °C, Protein G-Agarose, immunoblotting; controls: Prrt2Stop lysate, WT lysate pre-incubated with the epitope peptide

SYS1 (mouse (endogenous in mouse brain))
binding: no binding

No constants are given. Whether binding was seen depends on the method and setting. In cells and extracts the contact can be indirect.
